Results taken from PubChem BioAssay AID2685 (National Center for Advancing Translational Sciences (NCATS), 2010).
Out of some 320,000 compounds screened, about 2,100 (0.66%) were called active. The inconclusive results got no clear call from the source; some entries with a clear call stand among them for comparison. Calls come from the whole dose curve; as a rule, active = well fitted inhibition curve with a large enough effect in the signal ratio, with a control signal flat (not every such curve was filed as active); inconclusive = small, poorly fitted or top-dose-only effect, or effect the other way, or a change in a side signal; inactive = flat fitted curve, though single readings scatter; the % refers to the signal ratio. A potency beside an inconclusive call is a rough fit, not a confirmed value.

experiment: qHTS Assay for Lipid Storage Modulators in Drosophila S3 Cells; conditions: BODIPY lipid droplet fluorescence, 18-24 h, cells fed with added oleic acid; lipid storage change, negative = inhibition: at 46.1 µM (top of the series) unless noted
Procedure, shortened: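 Drosophila S3 cells loaded with oleic acid (400 uM, as added) and compounds at several concentrations; lipid droplets imaged by 488-nm laser-scanning cytometry, 500–530 nm intensity and object ratio to cell channel. Percent activity normalized to 20 uM Triacsin C.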
% is set by controls: 0 for no effect and ±100 for the full control effect; potency is the fitted concentration of half-maximal effect.

Row | SMILES | Potency | lipid storage change, negative = inhibition
1 | COc1ccc(C(=O)N/N=C\c2coc3ccc(Cl)cc3c2=O)cc1 | inconclusive: 29.1 µM [falling, single point] | 
2 | COc1ccc(C(=O)N2CCN(c3ncnc4c(-c5ccccc5)nsc34)CC2)cc1 |  | inconclusive: -43.3%
3 | CCNCc1cc2cc(C)ccc2[nH]c1=O |  | inconclusive: 44.9%
4 | Cc1cc(NCc2ccc(F)cc2)nc2cc(Cl)ccc12 | inconclusive: 1.84 µM [activator, partial curve] | 
5 | CCn1c(=NC(=O)CN2C(=O)CCC2=O)sc2c(OC)ccc(OC)c21 |  | inconclusive: -9.2%
6 | COc1ccc2[nH]c(C)c(CCN3C(=O)C4CC=CCC4C3=O)c2c1 (stereo not given) | inconclusive: 0.517 µM [activator, single point] | 
7 | CC(C)CN(C(=O)C(C)N1C(=O)c2ccccc2C1=O)c1c(N)n(Cc2ccccc2)c(=O)[nH]c1=O (stereo not given) |  | inconclusive: 14.8%
8 | COc1ccc(CN2CCN(C(=O)c3c(-c4ccccc4)noc3C)CC2)cc1F | inconclusive: 29.1 µM [falling, single point] | 
9 | O=C(c1cccs1)N(Cc1ccc(F)cc1)C1CCS(=O)(=O)C1 (stereo not given) |  | inconclusive: -16.8%
10 | NC(=O)COC(=O)c1cc(-c2cccs2)nn1-c1ccccc1 |  | inconclusive: 39.7%
11 | CCOc1ccc(S(=O)(=O)NCC2(N3CCCCC3)CCCCC2)cc1 |  | inconclusive
12 | CS(=O)(=O)N(CC(=O)N1CCCCCC1)c1cc(Cl)ccc1Cl |  | inconclusive: -6.26%
13 | O=C(N=C1SC2CS(=O)(=O)CC2N1Cc1ccc(F)cc1)C1CC1 (stereo not given) | inconclusive: 0.0146 µM [activator, single point] | 
14 | O=C(c1cn(Cc2ccccc2)nc1-c1cccnc1)N1CCN(Cc2c(F)cccc2Cl)CC1 | inconclusive: 29.1 µM [falling, single point] | 
15 | O=C(Nc1cccc(S(=O)(=O)NC2=NCCC2)c1)c1ccc(OC(F)F)cc1 | inconclusive: 1.3 µM [falling, partial curve] | 
16 | CC(C)(C)c1ccc(C(=O)NCCC(=O)N2CCN(c3ncccn3)CC2)cc1 |  | inconclusive: 9.45%
17 | COc1ccccc1NC(=O)C1CCCN(S(=O)(=O)c2ccccc2)C1 (stereo not given) | active: 5.8 µM | 
18 | C[C@]12CCC(=O)C=C1C=C[C@@H]1[C@@H]2CC[C@@]2(C)[C@H]1CC[C@@]21CCC(=O)O1 | inconclusive: 10.3 µM [activator, partial curve] | 
19 | COCCN1CCc2c(C)nc3c(-c4ccc(OC)c(OC)c4)cnn3c21 |  | inconclusive: 33.3%
20 | COc1ccc(CN(Cc2nc3ccccc3c(=O)[nH]2)C(=O)c2ccco2)cc1 |  | inconclusive: 84.4%

Row | SMILES | Potency | lipid storage change, negative = inhibition
21 | O=C(c1ccc2c(=O)n(CCc3ccccc3)c(=O)[nH]c2c1)N1CCN(c2ccccc2)CC1 |  | inconclusive: -100%
22 | COC(=O)c1ccc(C(=O)OC)c(NC(=S)N2CCOCC2)c1 | inconclusive: 29.1 µM [falling, single point] | 
23 | Cc1cccc(C(=O)NCCCNC(=O)c2ccccn2)c1 | inconclusive: 1.64 µM [falling, single point] | 
24 | Cc1csc(NC(=O)c2ccccc2)n1 |  | inactive: 17.8%
25 | Cc1ccc(NC(=O)C2CC2C)c(Cl)c1 (stereo not given) | inconclusive: 6.51 µM [falling, single point] | 
26 | O=C(COc1ccccc1)Nc1cccc(-c2ccc(N3CCOCC3)nn2)c1 |  | inconclusive: 46.4%
27 | COCCNC(=O)CC(NS(=O)(=O)c1ccc(C)cc1)c1ccco1 (stereo not given) | inconclusive: 1.46 µM [falling, partial curve] | 
28 | CCOC(=O)[C@H]1[C@H]2COc3ccc(Cl)cc3[C@@H]2N2C(=O)CN(Cc3ccc(OC)cc3)C(=O)[C@@]12C | inconclusive: 3.26 µM [falling, single point] | 
29 | C=CCNc1nc2ccccc2nc1NS(=O)(=O)c1cccs1 | inconclusive: 1.46 µM [rising, full curve] | 
30 | CCn1cc([N+](=O)[O-])c(C(=O)N2CCCC2)n1 | active: 29.1 µM | 
31 | COc1ccccc1OCc1ccc(C(=O)N/N=C/c2ccco2)cc1 | inconclusive: 6.51 µM [activator, partial curve, poor fit] | 
32 | Cc1ccc(NC(=O)C2CCN(S(=O)(=O)c3ccccc3)CC2)cc1 | inconclusive: 8.2 µM [falling, partial curve] | 
33 | CCCCC(=O)Nc1nn(C)c2nc3c(C)cccc3cc12 |  | inconclusive: -8.61%
34 | CCCn1cnc2cc(NCc3ccccn3)ccc21 |  | inconclusive: -24.8%
35 | S=C(NCc1ccccn1)Nc1ccccc1Cl |  | inconclusive: -2.9%
36 | CCCN1CC(O)=C(C#N)C1=O | inconclusive: 4.11 µM [falling, full curve, poor fit] | 
37 | COC(=O)C1(C)Nc2ccccc2C(=O)N1c1ccccc1C (stereo not given) |  | inconclusive: -13.9%
38 | CCOC(=O)CSc1nc(N)c(C#N)c(-c2cccs2)c1C#N |  | inconclusive: -15.8%
39 | COc1ccc(/C(O)=C2/C(=O)C(=O)N(CCCN(C)C)C2c2ccccc2)cc1Cl (stereo not given) | active: 13 µM | 
40 | CSc1nnc(SCC2=NNC(=O)SC2)s1 | inconclusive: 6.51 µM [falling, partial curve, poor fit] | 
